Source: PubChem BioAssay AID1259424 (University of Nebraska Medical Center, 2018)
Here is one part, drawn at random, of about 14,000 reagents tested. 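Higher correlation or smaller distance means closer resemblance to KSR1 loss; control wells, including KSR1 knockdowns, recur on many plates.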 Further read-outs or replicates are left out here. No sequences are given here. Not given: the time to read-out.

Assay: 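Seek colon cancer survival genes behaving like KSR1, using a six-gene signature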 (primary screen)
System: human HCT116 colon cancer cells
Reagent: siRNA pool against human genes, 50 nM
Measured: 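Six signature mRNAs by branched-DNA multiplex assay, scaled to two housekeeping genes and non-targeting median, log2; matched to mean KSR1 knockdown profile by Pearson correlation and euclidean distance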
Reading the numbers: mean correlation with KSR1 profile: higher = expression change more like KSR1 knockdown; mean distance from KSR1 profile: higher = expression change less like KSR1 knockdown

GOLGA6B (golgin A6 family member B) — mean correlation with KSR1 profile = -0.498; mean distance from KSR1 profile = 1.63
NR6A1 (nuclear receptor subfamily 6 group A member 1) — mean correlation with KSR1 profile = 0.42; mean distance from KSR1 profile = 1.67
ARHGAP1 (Rho GTPase activating protein 1) — mean correlation with KSR1 profile = -0.688; mean distance from KSR1 profile = 4.36
SMAD7 (SMAD family member 7) — mean correlation with KSR1 profile = 0.728; mean distance from KSR1 profile = 0.85
ST8SIA1 (ST8 alpha-N-acetyl-neuraminide alpha-2,8-sialyltransferase 1) — mean correlation with KSR1 profile = -0.508; mean distance from KSR1 profile = 5.61
TRIB3 (tribbles pseudokinase 3) — mean correlation with KSR1 profile = 0.139; mean distance from KSR1 profile = 2.79
TCN1 (transcobalamin 1) — mean correlation with KSR1 profile = 0.154; mean distance from KSR1 profile = 2.26
MARF1 (meiosis regulator and mRNA stability factor 1) — mean correlation with KSR1 profile = -0.596; mean distance from KSR1 profile = 1.78
PCDHB12 (protocadherin beta 12) — mean correlation with KSR1 profile = 0.864; mean distance from KSR1 profile = 0.994
TCF25 (TCF25 ribosome quality control complex subunit) — mean correlation with KSR1 profile = 0.549; mean distance from KSR1 profile = 1.75
NFE2L3 (NFE2 like bZIP transcription factor 3) — mean correlation with KSR1 profile = -0.0447; mean distance from KSR1 profile = 1.74
LINC00472 (long independently transcribed non-coding RNA 472) — mean correlation with KSR1 profile = -0.303; mean distance from KSR1 profile = 2.4
KHDRBS3 — mean correlation with KSR1 profile = -0.781; mean distance from KSR1 profile = 2.54
MALT1 (MALT1 paracaspase) — mean correlation with KSR1 profile = -0.13; mean distance from KSR1 profile = 3.5
TSPAN17 (tetraspanin 17) — mean correlation with KSR1 profile = 0.296; mean distance from KSR1 profile = 2.14
POU2AF1 (POU class 2 homeobox associating factor 1) — mean correlation with KSR1 profile = -0.838; mean distance from KSR1 profile = 3.02
DAGLA (diacylglycerol lipase alpha) — mean correlation with KSR1 profile = -0.0549; mean distance from KSR1 profile = 2.88
OTOA (otoancorin) — mean correlation with KSR1 profile = -0.246; mean distance from KSR1 profile = 1.85
TLL2 (tolloid like 2) — mean correlation with KSR1 profile = 0.298; mean distance from KSR1 profile = 2.04
CERS2 (ceramide synthase 2) — mean correlation with KSR1 profile = -0.33; mean distance from KSR1 profile = 2.17
OR2H1 (olfactory receptor family 2 subfamily H member 1) — mean correlation with KSR1 profile = 0.852; mean distance from KSR1 profile = 2.65
JCHAIN (joining chain of multimeric IgA and IgM) — mean correlation with KSR1 profile = 0.0758; mean distance from KSR1 profile = 2.99
SH2D1A (SH2 domain containing 1A) — mean correlation with KSR1 profile = -0.367; mean distance from KSR1 profile = 3.1
AMELY (amelogenin Y-linked) — mean correlation with KSR1 profile = -0.317; mean distance from KSR1 profile = 1.43
POF1B (POF1B actin binding protein) — mean correlation with KSR1 profile = 0.737; mean distance from KSR1 profile = 1.14
SMG9 (SMG9 nonsense mediated mRNA decay factor) — mean correlation with KSR1 profile = -0.113; mean distance from KSR1 profile = 2.81
NSMCE4A (NSE4A component of SMC5/6 complex) — mean correlation with KSR1 profile = -0.142; mean distance from KSR1 profile = 3.3
WDR19 (WD repeat domain 19) — mean correlation with KSR1 profile = -0.313; mean distance from KSR1 profile = 1.6
SNCAIP (synuclein alpha interacting protein) — mean correlation with KSR1 profile = 0.268; mean distance from KSR1 profile = 1.56
PCDHA4 (protocadherin alpha 4) — mean correlation with KSR1 profile = 0.157; mean distance from KSR1 profile = 1.76
XBP1 (X-box binding protein 1) — mean correlation with KSR1 profile = -0.587; mean distance from KSR1 profile = 2.65
NID1 (nidogen 1) — mean correlation with KSR1 profile = 0.27; mean distance from KSR1 profile = 1.5
CYP20A1 (cytochrome P450 family 20 subfamily A member 1) — mean correlation with KSR1 profile = -0.183; mean distance from KSR1 profile = 3.23
SVIL (supervillin) — mean correlation with KSR1 profile = 0.45; mean distance from KSR1 profile = 1.74
FHOD1 (formin homology 2 domain containing 1) — mean correlation with KSR1 profile = -0.491; mean distance from KSR1 profile = 1.86
HELLS (helicase, lymphoid specific) — mean correlation with KSR1 profile = 0.273; mean distance from KSR1 profile = 2.25

An excerpt from above, limited to “mean correlation with KSR1 profile”:
NSMCE4A (NSE4A component of SMC5/6 complex) = -0.142
WDR19 (WD repeat domain 19) = -0.313
SNCAIP (synuclein alpha interacting protein) = 0.268
